Test: Plasma adipokine and cytokine levels (LINCOplex)
Assay type: in vivo, mice
Conditions: high cholesterol diet

Substance: HNGF6A: HN analogue, SEQ ID NO:16 MAPRGASCLLLLTGEIDLPVKRRA (listed as Homo sapiens)
- levels of adipokines and cytokines between Group 3 and Group 4 (ApoE-deficient mice, plasma): no observed differences
- plasma level of t-PA and VEGF (Group 4 vs Group 3, ApoE-deficient mice): unaffected

Reference: US20130123168A1, “HUMANIN AND HUMANIN-ANALOGUES FOR THE MANAGEMENT OF ATHEROSCLEROSIS” (The Regents of the University of California, priority 2011, published 2013)
